No constants are given. Whether binding was seen depends on the method and setting. Binding seen in cells or lysates may run through a third protein. These calls come from enrichment with a bait or labelling near it, and not all partners need be listed. For some assays here: Where a sequence is shown, tags or fusion partners need not be part of it.

The chains behind the UniProt entries cited, without tags or fusion partners.
UniProt Q9Y230: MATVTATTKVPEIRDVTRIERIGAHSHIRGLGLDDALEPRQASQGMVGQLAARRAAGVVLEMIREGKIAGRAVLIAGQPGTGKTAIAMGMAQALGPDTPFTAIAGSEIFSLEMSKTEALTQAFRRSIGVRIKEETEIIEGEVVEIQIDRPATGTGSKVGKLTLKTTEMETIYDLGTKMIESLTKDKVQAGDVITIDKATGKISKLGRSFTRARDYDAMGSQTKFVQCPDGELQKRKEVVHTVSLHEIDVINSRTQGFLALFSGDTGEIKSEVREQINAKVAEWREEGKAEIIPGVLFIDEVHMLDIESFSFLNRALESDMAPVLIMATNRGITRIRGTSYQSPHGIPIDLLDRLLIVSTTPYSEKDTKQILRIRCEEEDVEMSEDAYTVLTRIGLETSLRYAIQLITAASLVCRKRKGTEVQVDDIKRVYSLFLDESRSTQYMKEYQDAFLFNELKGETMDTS
UniProt Q9Y265: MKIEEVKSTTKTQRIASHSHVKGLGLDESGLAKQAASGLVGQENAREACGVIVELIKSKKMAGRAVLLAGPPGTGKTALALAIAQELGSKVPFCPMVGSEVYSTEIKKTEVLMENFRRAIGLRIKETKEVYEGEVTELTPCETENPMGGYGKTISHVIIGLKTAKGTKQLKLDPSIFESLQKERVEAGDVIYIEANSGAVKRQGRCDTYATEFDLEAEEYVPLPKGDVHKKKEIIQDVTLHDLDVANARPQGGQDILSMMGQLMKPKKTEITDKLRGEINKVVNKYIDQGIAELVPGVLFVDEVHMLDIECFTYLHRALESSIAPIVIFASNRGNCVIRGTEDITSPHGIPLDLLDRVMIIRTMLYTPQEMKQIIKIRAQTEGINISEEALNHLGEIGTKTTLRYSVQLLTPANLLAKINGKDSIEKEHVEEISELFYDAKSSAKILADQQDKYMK
UniProt Q9Y4A5: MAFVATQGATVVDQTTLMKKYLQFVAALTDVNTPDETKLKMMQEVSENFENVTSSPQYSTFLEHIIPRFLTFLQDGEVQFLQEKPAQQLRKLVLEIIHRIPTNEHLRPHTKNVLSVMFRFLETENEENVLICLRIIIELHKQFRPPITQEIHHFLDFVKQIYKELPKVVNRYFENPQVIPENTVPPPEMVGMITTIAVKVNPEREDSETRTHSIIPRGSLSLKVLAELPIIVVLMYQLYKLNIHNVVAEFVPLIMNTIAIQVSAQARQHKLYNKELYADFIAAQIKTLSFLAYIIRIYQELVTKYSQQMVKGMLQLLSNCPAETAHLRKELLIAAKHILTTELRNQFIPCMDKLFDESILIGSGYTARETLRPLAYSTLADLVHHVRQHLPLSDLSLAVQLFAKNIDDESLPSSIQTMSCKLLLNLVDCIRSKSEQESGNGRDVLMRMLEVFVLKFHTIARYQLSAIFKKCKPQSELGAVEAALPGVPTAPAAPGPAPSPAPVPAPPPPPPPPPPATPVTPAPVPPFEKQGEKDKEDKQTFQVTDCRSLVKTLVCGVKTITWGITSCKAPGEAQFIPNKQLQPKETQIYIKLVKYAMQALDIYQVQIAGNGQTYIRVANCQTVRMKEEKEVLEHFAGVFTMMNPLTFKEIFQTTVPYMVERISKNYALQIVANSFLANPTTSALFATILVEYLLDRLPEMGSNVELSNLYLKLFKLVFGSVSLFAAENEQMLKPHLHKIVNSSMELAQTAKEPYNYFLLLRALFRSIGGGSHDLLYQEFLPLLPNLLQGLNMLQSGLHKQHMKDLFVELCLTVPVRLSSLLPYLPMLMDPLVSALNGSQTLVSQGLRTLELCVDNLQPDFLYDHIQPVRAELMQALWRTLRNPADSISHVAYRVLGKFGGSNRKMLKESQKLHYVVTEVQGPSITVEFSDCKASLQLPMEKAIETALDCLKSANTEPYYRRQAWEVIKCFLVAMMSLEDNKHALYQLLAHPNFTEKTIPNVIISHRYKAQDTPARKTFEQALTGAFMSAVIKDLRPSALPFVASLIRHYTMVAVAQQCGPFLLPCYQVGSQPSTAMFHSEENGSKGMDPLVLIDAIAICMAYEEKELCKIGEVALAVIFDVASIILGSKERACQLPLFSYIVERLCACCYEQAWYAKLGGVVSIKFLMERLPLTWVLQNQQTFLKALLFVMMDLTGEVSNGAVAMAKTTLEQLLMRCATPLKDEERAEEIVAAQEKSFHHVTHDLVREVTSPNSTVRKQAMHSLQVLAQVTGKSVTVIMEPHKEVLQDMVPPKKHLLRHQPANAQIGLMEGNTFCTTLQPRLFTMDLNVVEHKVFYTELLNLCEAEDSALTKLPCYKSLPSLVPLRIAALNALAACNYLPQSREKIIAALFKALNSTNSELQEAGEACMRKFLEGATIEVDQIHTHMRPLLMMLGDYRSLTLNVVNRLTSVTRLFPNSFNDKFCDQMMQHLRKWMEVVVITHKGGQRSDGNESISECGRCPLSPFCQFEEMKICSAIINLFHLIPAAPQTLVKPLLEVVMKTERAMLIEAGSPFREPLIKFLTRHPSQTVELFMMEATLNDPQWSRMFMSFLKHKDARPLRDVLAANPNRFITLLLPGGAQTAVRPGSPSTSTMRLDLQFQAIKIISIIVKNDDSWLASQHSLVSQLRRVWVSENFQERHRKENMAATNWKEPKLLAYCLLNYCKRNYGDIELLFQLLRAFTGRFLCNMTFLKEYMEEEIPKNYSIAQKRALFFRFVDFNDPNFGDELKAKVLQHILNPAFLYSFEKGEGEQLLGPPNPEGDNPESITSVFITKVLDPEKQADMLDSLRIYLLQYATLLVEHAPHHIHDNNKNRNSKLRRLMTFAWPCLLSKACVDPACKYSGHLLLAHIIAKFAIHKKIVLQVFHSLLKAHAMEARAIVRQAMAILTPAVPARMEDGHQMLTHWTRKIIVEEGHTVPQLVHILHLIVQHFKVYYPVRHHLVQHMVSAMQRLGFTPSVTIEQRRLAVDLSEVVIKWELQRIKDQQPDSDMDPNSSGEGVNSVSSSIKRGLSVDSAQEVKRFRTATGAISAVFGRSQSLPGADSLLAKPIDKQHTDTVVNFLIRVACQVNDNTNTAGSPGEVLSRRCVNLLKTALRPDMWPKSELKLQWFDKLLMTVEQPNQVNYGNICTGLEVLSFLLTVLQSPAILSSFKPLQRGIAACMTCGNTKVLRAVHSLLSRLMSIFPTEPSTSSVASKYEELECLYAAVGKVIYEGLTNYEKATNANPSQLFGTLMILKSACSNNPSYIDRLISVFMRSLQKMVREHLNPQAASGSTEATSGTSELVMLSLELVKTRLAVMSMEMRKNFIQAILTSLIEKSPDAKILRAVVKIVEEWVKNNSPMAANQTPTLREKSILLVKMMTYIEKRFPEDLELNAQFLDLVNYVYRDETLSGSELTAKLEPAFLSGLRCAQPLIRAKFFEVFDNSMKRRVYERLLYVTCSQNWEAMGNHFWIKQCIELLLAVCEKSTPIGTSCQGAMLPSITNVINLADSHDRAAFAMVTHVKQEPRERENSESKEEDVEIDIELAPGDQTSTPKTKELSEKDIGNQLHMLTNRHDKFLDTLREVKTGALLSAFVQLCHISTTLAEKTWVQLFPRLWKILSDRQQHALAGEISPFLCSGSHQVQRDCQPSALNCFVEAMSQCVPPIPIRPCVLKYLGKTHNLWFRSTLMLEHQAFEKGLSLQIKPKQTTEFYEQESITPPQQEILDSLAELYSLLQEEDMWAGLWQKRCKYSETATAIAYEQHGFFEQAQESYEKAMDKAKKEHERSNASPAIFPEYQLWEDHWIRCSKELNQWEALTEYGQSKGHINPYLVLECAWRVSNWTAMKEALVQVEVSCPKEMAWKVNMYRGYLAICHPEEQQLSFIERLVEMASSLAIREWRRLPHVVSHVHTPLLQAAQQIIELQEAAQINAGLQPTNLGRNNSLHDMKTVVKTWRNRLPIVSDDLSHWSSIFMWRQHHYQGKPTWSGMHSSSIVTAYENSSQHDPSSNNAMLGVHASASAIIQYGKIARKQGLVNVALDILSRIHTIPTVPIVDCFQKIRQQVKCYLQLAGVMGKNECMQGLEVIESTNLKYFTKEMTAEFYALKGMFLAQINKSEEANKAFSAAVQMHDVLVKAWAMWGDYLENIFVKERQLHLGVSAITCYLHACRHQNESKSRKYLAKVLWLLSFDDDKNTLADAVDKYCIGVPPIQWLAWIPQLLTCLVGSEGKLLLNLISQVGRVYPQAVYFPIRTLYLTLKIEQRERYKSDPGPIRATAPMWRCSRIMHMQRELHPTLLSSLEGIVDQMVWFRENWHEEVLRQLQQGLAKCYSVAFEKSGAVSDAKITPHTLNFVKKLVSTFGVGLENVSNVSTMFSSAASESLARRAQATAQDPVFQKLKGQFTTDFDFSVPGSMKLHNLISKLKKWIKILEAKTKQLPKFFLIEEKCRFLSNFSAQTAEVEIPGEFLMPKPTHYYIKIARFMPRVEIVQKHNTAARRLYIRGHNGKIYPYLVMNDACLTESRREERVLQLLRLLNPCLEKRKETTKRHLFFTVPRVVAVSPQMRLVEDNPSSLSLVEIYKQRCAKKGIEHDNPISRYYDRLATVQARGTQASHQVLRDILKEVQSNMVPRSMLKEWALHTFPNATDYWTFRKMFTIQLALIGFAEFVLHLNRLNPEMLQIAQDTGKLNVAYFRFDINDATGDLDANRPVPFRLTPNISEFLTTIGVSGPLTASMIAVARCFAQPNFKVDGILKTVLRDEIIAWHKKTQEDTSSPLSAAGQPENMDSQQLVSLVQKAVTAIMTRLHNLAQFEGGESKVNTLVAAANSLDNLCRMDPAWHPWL
UniProt Q9Y5U2: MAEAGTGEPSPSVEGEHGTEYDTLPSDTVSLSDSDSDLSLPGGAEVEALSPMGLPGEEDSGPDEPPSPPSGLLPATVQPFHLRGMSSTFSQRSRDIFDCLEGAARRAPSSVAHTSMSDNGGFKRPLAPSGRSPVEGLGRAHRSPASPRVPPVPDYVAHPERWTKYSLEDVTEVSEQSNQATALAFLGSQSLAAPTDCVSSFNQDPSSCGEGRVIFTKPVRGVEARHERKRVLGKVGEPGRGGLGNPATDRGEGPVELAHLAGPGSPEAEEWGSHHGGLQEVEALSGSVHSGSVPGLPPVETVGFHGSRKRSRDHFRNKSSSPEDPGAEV
UniProt Q9BUQ8: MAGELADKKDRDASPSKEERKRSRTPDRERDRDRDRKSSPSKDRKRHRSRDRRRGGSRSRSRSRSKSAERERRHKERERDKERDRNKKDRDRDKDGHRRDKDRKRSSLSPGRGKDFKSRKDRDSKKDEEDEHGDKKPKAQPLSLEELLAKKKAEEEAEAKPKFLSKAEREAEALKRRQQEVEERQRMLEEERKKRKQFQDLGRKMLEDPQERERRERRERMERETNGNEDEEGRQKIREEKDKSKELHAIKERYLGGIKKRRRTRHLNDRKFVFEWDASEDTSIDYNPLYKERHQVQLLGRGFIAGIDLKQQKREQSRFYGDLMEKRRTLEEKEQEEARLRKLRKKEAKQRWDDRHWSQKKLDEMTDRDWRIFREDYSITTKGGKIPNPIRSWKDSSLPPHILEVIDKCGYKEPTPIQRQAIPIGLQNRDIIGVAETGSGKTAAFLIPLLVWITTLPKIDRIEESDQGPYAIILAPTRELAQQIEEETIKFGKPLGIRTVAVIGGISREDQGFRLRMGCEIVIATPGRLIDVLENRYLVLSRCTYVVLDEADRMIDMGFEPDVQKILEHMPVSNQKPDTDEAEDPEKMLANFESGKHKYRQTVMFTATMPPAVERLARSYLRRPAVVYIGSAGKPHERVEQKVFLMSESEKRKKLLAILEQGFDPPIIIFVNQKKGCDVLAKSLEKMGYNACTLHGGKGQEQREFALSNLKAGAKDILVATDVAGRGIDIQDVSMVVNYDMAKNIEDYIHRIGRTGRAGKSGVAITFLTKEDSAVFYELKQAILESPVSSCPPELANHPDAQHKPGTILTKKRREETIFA

The target in experiment [1] is T1, TAP-tagged TSC1 (UniProt Q92574).
T1 sequence: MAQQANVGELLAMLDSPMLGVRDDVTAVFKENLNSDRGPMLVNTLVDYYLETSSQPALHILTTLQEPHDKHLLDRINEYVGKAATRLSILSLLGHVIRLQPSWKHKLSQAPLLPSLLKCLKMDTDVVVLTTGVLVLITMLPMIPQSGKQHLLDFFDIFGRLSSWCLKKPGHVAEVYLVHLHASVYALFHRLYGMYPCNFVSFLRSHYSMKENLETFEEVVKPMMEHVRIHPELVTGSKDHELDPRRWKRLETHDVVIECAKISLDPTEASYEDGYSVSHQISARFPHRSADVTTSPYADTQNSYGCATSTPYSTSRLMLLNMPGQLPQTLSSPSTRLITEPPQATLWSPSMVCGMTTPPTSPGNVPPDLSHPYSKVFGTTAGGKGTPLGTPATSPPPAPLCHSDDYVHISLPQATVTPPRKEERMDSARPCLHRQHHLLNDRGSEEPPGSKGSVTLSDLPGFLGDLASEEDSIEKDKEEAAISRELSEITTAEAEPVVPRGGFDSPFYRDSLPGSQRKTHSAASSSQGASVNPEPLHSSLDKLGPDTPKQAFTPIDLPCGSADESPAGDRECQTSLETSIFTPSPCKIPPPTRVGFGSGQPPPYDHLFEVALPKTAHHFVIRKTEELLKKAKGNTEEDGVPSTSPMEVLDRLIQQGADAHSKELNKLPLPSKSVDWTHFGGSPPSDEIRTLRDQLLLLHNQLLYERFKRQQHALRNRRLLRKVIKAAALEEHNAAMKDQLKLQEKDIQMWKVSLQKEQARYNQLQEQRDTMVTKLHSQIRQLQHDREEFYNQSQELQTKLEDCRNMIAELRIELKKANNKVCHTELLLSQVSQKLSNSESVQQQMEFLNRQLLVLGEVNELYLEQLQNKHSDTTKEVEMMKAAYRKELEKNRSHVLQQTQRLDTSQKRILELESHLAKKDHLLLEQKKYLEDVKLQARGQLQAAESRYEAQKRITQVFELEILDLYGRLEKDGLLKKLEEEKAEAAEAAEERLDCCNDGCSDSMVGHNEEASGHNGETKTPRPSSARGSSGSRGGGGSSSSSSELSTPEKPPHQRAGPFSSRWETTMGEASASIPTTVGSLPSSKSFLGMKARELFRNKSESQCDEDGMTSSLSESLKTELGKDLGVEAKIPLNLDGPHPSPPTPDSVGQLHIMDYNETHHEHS
Put plainly: affinity purification with mass spectrometry; TAP-MS: TAP-tagged bait induced with 3 uM ponasterone A for 48 h in stable EcR 293 cells; IgG sepharose, TEV cleavage, calmodulin sepharose, LC-MS/MS; soluble and chromatin fractions purified separately, the fraction is not told for these hits.

Experiment [2] concerns the target TAP-tagged TSC2 (UniProt P49815). The experiment is described as above.
Experiment [3] deals with T2, TAP-tagged TBC1D7 (UniProt Q9P0N9).
T2 sequence: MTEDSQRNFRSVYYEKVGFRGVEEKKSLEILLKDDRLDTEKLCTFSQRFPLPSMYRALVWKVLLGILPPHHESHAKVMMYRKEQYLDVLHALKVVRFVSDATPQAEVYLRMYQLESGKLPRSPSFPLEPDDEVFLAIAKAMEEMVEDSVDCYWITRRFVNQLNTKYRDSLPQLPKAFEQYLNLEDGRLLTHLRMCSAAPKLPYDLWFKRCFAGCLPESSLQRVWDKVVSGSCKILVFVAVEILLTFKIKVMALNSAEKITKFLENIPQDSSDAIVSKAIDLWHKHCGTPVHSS
The experiment is described as above.

Experiment [4] has as its target T3, EFTUD2-FLAG (UniProt Q15029).
T3 sequence: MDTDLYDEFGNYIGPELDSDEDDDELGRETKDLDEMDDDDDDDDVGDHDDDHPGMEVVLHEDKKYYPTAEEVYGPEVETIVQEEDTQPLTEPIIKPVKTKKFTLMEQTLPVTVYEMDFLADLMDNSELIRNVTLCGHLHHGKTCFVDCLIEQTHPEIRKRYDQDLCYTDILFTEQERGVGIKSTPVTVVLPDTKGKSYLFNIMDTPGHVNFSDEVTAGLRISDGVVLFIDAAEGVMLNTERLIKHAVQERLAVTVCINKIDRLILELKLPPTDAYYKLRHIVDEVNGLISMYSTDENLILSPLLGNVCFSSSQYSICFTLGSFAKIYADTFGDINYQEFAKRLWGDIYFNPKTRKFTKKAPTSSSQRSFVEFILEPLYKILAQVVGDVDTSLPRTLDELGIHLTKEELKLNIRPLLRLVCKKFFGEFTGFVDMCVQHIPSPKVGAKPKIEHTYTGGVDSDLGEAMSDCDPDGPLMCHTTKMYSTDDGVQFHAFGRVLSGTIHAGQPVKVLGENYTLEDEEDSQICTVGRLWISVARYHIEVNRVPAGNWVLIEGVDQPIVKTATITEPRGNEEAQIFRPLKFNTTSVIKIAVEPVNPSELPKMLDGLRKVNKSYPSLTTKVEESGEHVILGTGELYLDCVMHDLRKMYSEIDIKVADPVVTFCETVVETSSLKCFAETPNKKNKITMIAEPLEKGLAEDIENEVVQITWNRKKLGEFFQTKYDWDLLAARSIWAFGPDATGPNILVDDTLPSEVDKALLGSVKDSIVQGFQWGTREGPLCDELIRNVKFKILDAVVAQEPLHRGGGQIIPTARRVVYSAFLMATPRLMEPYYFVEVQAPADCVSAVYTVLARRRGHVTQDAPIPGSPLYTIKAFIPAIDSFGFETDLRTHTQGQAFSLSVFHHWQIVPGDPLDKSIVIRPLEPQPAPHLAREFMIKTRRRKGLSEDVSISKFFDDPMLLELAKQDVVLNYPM
Put plainly: affinity purification with mass spectrometry; triple SILAC: FLAG-tagged bait in HEK 293 cells with control siRNA (medium) or siRNA against ZNHIT2 or RUVBL2 (heavy), untransfected cells (light) as control; anti-FLAG M2 magnetic beads, lysis buffer with 100 mM KCl and 0.1% NP-40; MaxQuant.

Experiment [5] addresses TAP-tagged RUVBL2 (human) (UniProt Q9Y230). Put plainly: affinity purification with mass spectrometry; TAP-MS as in a1, chromatin fraction (digested overnight with benzonase, RNase A and DNaseI).
Experiment [6] deals with T4, TAP-tagged SLC7A6OS (UniProt Q96CW6).
T4 sequence: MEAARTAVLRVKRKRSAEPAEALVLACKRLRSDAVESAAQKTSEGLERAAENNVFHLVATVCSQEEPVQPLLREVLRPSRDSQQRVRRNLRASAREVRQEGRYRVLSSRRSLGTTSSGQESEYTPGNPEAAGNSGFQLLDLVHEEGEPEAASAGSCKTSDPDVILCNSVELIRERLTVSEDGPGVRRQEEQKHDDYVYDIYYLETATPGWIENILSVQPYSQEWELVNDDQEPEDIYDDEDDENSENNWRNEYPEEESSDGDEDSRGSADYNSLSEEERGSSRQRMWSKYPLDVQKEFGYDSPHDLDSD
Briefly: affinity purification with mass spectrometry; TAP-MS: TAP-tagged bait induced with 3 uM ponasterone A for 48 h in stable EcR 293 cells; IgG sepharose, TEV cleavage, calmodulin sepharose, LC-MS/MS; soluble and chromatin fractions purified separately, the fraction is not told for these hits.

The target of experiment [7] is T5, TAP-tagged ZNHIT2 (human) (UniProt Q9UHR6).
T5 sequence: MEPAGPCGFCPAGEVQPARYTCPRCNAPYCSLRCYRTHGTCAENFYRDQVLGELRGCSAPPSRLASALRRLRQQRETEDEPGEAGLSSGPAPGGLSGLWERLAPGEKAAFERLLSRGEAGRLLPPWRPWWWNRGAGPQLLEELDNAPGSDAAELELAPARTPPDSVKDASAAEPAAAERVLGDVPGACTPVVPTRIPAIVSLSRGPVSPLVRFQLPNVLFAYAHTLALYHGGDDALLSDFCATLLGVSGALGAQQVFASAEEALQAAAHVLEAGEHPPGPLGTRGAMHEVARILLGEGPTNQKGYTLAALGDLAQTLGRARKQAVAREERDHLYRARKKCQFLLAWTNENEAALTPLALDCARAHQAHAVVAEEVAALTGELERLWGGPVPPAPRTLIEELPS
Described as above.

RUVBL1 (from UniProt Q9Y265 1-456): the binding result in experiment [1], in experiment [2] and in experiment [3] was “binds” each time. Regarding SNRNP200 (from UniProt O75643 1-2136), in experiment [4], the binding result is recorded as “binds”.

In the case of TRRAP (from UniProt Q9Y4A5 1-3859), the binding result in experiment [5] is “binds”. Regarding TSSC4 (from UniProt Q9Y5U2 1-329), the binding result in experiment [6] and in experiment [7] was “binds” each time.

Take DDX23 (from UniProt Q9BUQ8 1-820): the binding result in experiment [4] is “binds”.

Source of the values: paper PMC5460035.
